The entries are a selection whose mix differs from that of the whole data set. The data scatter; read single values as rough.
compound: COC(=O)/C=C/c1ccccc1 [methyl cinnamate]; experiment: log2 ratio of iodoacetamide-alkyne labeling of the cysteine site, DMSO over compound (competition); higher = stronger covalent engagement of the cysteine by the compound, active = 1 or more; details: 500 µM; treatment time 1 h; system: HEK293T cell lysate
Method in brief: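 HEK293T lysate at 2 mg/mL was treated with vehicle or electrophile (500 µM) for 1 h at ambient temperature, then labelled with iodoacetamide alkyne (1 h), clicked to sCIP-TMT reagents, pooled, digested with trypsin overnight at 37 °C, enriched on streptavidin and eluted with acid. Peptides were analysed by Orbitrap Eclipse LC-MS/MS with FAIMS and quantified in FragPipe, using duplicate channels and three replicates, with cysteines quantified in only one replicate excluded. The log2 competition ratio for each cysteine is the mean control-channel reporter intensity divided by the mean compound-channel reporter intensity.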

Protein sequences, listed by entry. Tags and fused reporters are not part of them. Lines headed by an entry give the natural chain unless they say otherwise; changes in a name come on top.
UniProt P18085: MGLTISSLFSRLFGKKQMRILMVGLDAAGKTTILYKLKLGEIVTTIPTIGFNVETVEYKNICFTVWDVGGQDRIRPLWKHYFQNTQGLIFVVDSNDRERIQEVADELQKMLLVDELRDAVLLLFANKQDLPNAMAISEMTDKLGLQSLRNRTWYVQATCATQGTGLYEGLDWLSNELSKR
UniProt P21359: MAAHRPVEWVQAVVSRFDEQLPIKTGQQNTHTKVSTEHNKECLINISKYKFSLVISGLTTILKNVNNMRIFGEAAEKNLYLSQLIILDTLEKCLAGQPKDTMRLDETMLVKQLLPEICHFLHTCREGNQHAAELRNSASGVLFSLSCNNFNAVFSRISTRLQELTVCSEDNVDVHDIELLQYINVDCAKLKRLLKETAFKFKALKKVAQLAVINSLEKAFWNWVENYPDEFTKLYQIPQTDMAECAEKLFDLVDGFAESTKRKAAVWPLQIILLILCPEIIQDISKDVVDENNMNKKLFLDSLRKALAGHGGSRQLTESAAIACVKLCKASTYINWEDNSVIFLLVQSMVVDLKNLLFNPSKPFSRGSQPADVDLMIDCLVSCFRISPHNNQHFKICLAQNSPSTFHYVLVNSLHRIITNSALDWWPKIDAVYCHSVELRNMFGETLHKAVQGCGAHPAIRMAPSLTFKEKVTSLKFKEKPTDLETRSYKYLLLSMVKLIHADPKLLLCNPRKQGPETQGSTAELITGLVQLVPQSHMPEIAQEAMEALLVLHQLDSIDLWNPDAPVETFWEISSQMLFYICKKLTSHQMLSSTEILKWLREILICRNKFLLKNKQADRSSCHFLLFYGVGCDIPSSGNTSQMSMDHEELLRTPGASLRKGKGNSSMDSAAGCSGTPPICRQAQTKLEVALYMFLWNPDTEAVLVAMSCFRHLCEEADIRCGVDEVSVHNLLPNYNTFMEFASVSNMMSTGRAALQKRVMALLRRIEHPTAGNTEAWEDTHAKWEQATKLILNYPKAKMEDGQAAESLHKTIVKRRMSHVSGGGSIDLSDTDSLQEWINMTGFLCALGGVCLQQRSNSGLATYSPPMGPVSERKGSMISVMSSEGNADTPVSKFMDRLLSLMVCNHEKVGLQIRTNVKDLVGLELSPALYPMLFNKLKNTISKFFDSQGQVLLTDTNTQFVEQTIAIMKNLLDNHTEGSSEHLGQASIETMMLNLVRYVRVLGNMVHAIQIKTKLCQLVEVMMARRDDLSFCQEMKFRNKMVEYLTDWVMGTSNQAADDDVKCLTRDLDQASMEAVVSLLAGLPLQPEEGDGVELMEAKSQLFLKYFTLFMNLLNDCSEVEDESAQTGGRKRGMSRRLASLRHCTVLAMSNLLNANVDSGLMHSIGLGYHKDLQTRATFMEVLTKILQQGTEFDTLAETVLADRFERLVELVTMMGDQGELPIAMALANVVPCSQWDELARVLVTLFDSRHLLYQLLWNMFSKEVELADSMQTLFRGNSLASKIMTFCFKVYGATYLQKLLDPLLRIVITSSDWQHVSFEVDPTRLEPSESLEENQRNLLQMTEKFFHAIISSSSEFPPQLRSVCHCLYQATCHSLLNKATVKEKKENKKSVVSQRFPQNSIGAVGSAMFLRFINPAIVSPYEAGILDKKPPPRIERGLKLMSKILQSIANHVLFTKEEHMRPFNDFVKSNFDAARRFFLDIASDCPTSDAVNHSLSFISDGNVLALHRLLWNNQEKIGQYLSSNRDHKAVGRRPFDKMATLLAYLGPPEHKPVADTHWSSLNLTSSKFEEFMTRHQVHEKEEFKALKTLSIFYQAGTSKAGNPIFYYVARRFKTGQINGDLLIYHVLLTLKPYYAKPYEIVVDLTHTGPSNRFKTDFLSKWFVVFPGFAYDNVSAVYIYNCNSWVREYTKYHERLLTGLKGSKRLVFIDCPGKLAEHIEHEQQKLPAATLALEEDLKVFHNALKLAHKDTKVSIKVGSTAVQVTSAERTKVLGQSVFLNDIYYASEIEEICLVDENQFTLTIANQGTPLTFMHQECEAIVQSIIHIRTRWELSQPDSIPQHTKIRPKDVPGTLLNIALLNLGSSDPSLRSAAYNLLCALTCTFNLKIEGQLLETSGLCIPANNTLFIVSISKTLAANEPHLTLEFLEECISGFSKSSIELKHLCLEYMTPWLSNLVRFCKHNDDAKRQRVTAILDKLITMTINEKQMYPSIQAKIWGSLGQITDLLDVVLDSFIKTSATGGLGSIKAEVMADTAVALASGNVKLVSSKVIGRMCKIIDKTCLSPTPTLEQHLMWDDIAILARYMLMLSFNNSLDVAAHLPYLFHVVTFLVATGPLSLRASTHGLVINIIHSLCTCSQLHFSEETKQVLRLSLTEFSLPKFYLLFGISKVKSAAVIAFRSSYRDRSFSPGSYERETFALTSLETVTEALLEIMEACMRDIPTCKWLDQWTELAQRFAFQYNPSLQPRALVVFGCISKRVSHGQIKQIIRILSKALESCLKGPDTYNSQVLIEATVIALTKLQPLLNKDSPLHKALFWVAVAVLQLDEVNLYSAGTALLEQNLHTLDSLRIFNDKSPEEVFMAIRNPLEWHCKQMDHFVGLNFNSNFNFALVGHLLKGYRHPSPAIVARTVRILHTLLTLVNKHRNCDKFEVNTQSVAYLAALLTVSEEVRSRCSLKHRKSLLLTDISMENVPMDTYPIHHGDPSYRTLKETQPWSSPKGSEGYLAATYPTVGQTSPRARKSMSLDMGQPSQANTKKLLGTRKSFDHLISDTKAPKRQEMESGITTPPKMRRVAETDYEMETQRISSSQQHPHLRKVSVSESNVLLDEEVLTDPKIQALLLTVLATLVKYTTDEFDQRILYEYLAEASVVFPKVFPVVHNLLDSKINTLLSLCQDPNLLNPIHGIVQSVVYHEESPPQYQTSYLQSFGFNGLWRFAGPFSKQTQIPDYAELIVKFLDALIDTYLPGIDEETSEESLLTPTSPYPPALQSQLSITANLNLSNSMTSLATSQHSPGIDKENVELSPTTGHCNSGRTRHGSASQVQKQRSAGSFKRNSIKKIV
UniProt P26639: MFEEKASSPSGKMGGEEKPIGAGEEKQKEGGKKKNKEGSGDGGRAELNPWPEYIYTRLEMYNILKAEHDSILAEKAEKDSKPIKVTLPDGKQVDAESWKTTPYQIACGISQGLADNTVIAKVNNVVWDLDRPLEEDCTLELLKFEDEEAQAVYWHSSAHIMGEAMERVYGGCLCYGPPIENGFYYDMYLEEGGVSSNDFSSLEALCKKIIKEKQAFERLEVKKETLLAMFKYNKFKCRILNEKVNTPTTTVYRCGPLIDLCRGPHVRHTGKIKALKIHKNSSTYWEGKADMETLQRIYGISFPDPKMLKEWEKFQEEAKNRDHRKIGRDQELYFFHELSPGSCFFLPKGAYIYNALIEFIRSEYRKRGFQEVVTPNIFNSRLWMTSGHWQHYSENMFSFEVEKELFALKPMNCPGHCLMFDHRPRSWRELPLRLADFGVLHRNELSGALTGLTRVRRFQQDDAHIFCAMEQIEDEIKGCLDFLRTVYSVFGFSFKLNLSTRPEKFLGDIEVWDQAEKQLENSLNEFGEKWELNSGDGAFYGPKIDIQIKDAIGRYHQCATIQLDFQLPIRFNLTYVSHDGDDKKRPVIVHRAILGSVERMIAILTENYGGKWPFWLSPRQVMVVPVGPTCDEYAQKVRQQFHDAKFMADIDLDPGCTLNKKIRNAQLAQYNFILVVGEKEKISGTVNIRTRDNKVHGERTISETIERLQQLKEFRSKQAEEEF
UniProt P27708: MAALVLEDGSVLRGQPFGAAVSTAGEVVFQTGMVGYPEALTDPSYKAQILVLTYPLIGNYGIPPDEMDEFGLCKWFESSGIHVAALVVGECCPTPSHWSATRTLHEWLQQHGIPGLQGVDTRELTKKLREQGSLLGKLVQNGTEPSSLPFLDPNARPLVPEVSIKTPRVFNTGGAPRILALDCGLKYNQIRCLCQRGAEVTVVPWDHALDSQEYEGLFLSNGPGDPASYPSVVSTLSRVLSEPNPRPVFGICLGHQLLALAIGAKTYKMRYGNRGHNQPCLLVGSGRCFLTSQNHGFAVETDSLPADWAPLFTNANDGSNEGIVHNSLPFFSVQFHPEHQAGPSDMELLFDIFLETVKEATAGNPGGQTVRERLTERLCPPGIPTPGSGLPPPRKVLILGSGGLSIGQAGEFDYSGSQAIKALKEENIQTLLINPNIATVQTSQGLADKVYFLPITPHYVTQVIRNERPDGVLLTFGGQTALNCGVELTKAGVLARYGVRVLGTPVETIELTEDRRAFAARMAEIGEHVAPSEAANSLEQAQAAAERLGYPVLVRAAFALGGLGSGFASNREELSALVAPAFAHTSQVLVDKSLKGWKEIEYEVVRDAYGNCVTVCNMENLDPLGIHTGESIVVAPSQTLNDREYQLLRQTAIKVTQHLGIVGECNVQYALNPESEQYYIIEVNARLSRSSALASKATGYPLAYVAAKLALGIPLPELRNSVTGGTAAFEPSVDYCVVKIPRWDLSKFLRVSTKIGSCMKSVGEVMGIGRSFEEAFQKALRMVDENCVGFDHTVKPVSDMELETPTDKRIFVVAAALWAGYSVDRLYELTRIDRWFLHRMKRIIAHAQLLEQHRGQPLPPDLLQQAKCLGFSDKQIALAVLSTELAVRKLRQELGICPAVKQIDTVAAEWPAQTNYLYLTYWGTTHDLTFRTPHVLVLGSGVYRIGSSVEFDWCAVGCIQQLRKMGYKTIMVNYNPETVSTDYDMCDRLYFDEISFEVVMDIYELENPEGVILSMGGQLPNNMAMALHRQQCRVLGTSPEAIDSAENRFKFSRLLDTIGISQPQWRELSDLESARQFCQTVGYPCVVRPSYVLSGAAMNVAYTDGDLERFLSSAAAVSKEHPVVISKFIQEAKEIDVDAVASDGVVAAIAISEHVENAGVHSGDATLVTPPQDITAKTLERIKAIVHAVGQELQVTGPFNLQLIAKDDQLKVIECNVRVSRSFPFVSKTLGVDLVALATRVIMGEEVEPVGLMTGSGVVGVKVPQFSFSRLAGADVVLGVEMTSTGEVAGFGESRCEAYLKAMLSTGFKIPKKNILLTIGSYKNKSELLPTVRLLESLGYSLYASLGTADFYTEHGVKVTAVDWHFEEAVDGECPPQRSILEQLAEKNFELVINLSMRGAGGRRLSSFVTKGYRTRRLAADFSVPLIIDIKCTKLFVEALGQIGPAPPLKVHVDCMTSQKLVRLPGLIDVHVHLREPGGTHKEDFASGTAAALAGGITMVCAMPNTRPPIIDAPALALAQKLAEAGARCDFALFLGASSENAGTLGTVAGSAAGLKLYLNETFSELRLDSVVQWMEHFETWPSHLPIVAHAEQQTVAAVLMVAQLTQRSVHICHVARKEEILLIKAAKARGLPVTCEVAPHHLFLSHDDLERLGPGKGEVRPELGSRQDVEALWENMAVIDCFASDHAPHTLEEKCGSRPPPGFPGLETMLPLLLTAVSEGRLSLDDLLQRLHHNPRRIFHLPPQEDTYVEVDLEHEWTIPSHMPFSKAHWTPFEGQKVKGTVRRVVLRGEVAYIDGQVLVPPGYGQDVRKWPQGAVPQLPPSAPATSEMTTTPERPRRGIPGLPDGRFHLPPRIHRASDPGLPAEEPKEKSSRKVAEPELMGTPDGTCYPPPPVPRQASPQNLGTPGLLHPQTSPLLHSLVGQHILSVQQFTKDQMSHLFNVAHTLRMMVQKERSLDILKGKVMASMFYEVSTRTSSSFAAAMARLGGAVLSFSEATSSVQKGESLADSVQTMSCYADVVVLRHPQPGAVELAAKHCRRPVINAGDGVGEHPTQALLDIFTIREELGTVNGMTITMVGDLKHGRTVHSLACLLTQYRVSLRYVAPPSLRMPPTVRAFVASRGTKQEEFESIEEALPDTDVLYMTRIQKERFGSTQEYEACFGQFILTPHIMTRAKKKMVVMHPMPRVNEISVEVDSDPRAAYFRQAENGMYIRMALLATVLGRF
UniProt P21912: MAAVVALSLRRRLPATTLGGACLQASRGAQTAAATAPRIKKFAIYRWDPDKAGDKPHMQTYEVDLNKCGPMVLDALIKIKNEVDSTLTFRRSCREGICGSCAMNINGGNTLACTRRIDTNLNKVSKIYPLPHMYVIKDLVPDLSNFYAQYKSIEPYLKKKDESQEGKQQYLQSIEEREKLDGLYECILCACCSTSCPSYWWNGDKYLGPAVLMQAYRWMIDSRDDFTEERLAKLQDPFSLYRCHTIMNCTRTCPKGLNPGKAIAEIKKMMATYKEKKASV
UniProt P21964: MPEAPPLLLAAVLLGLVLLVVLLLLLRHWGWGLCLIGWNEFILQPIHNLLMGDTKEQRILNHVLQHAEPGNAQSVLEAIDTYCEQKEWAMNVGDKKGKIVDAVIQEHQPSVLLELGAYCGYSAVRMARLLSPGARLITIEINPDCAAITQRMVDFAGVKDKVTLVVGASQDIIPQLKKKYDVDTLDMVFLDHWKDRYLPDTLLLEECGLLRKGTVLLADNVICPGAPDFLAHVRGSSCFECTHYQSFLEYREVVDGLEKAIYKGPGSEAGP

log2 ratio of iodoacetamide-alkyne labeling, inactive:
ABCD3 C472 (UniProt P28288) 0.186, VDAC1 C232 (UniProt P21796) 0.12, ARF4 C62 (UniProt P18085) -0.0182, LAP3 C335 (UniProt P28838) -0.0128, ACAT1 C119 (UniProt P24752) 0.0602, MAP4 C535 (UniProt P27816) -0.243, BCKDHB C177 (UniProt P21953) 0.0562, EIF2S2 C302 (UniProt P20042) 0.141, DNAJB1 C179 (UniProt P25685) 0.132, NF1 C1486 (UniProt P21359) 0.125, UniProt P26639_C656 0.127, RPL12 C162 (UniProt P30050) 0.0379, TCP1 C385 (UniProt P17987) -0.0104, FECH C411 (UniProt P22830) 0.19, CAD C736 (UniProt P27708) 0.0438, PSMA1 C148 (UniProt P25786) 0.0475, UQCRC2 C192 (UniProt P22695) 0.0887, VARS C340 (UniProt P26640) -0.15, RRM1 C352 (UniProt P23921) 0.0852, RCC1 C93 (UniProt P18754) 0.174, GART C298 (UniProt P22102) -0.13, ABCD3 C24 (UniProt P28288) -0.0367, TPP2 C967 (UniProt P29144) 0.197, UniProt P23610_C62 0.112, RPL10 C49 (UniProt P27635) -3e-05, UniProt P28290_C901 0.285, APC C1387 (UniProt P25054) 0.00762, VARS C720 (UniProt P26640) -0.0345, MPST C7 (UniProt P25325) 0.432, ACO1 C369 (UniProt P21399) -0.0176, ARF4 C159 (UniProt P18085) 0.0458, SDHB C68 (UniProt P21912) 0.243, COMT C223 (UniProt P21964) 0.232, RPL7 C186 (UniProt P18124) 0.0435, ARNT C380 (UniProt P27540) 0.122, DNMT1 C62 (UniProt P26358) 0.136, UniProt P26639_C343 0.104
